The results in this text go back to the supplement of paper PMC10849652.

Amino acid sequences for entries named in this document (tags omitted). A change or cut given only in a name is not applied to a line headed by its entry.
UniProt Q8NI22: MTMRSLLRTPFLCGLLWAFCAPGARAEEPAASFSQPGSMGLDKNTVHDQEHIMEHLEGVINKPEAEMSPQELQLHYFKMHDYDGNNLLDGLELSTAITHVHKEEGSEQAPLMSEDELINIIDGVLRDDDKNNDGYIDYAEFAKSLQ
UniProt Q9NU22: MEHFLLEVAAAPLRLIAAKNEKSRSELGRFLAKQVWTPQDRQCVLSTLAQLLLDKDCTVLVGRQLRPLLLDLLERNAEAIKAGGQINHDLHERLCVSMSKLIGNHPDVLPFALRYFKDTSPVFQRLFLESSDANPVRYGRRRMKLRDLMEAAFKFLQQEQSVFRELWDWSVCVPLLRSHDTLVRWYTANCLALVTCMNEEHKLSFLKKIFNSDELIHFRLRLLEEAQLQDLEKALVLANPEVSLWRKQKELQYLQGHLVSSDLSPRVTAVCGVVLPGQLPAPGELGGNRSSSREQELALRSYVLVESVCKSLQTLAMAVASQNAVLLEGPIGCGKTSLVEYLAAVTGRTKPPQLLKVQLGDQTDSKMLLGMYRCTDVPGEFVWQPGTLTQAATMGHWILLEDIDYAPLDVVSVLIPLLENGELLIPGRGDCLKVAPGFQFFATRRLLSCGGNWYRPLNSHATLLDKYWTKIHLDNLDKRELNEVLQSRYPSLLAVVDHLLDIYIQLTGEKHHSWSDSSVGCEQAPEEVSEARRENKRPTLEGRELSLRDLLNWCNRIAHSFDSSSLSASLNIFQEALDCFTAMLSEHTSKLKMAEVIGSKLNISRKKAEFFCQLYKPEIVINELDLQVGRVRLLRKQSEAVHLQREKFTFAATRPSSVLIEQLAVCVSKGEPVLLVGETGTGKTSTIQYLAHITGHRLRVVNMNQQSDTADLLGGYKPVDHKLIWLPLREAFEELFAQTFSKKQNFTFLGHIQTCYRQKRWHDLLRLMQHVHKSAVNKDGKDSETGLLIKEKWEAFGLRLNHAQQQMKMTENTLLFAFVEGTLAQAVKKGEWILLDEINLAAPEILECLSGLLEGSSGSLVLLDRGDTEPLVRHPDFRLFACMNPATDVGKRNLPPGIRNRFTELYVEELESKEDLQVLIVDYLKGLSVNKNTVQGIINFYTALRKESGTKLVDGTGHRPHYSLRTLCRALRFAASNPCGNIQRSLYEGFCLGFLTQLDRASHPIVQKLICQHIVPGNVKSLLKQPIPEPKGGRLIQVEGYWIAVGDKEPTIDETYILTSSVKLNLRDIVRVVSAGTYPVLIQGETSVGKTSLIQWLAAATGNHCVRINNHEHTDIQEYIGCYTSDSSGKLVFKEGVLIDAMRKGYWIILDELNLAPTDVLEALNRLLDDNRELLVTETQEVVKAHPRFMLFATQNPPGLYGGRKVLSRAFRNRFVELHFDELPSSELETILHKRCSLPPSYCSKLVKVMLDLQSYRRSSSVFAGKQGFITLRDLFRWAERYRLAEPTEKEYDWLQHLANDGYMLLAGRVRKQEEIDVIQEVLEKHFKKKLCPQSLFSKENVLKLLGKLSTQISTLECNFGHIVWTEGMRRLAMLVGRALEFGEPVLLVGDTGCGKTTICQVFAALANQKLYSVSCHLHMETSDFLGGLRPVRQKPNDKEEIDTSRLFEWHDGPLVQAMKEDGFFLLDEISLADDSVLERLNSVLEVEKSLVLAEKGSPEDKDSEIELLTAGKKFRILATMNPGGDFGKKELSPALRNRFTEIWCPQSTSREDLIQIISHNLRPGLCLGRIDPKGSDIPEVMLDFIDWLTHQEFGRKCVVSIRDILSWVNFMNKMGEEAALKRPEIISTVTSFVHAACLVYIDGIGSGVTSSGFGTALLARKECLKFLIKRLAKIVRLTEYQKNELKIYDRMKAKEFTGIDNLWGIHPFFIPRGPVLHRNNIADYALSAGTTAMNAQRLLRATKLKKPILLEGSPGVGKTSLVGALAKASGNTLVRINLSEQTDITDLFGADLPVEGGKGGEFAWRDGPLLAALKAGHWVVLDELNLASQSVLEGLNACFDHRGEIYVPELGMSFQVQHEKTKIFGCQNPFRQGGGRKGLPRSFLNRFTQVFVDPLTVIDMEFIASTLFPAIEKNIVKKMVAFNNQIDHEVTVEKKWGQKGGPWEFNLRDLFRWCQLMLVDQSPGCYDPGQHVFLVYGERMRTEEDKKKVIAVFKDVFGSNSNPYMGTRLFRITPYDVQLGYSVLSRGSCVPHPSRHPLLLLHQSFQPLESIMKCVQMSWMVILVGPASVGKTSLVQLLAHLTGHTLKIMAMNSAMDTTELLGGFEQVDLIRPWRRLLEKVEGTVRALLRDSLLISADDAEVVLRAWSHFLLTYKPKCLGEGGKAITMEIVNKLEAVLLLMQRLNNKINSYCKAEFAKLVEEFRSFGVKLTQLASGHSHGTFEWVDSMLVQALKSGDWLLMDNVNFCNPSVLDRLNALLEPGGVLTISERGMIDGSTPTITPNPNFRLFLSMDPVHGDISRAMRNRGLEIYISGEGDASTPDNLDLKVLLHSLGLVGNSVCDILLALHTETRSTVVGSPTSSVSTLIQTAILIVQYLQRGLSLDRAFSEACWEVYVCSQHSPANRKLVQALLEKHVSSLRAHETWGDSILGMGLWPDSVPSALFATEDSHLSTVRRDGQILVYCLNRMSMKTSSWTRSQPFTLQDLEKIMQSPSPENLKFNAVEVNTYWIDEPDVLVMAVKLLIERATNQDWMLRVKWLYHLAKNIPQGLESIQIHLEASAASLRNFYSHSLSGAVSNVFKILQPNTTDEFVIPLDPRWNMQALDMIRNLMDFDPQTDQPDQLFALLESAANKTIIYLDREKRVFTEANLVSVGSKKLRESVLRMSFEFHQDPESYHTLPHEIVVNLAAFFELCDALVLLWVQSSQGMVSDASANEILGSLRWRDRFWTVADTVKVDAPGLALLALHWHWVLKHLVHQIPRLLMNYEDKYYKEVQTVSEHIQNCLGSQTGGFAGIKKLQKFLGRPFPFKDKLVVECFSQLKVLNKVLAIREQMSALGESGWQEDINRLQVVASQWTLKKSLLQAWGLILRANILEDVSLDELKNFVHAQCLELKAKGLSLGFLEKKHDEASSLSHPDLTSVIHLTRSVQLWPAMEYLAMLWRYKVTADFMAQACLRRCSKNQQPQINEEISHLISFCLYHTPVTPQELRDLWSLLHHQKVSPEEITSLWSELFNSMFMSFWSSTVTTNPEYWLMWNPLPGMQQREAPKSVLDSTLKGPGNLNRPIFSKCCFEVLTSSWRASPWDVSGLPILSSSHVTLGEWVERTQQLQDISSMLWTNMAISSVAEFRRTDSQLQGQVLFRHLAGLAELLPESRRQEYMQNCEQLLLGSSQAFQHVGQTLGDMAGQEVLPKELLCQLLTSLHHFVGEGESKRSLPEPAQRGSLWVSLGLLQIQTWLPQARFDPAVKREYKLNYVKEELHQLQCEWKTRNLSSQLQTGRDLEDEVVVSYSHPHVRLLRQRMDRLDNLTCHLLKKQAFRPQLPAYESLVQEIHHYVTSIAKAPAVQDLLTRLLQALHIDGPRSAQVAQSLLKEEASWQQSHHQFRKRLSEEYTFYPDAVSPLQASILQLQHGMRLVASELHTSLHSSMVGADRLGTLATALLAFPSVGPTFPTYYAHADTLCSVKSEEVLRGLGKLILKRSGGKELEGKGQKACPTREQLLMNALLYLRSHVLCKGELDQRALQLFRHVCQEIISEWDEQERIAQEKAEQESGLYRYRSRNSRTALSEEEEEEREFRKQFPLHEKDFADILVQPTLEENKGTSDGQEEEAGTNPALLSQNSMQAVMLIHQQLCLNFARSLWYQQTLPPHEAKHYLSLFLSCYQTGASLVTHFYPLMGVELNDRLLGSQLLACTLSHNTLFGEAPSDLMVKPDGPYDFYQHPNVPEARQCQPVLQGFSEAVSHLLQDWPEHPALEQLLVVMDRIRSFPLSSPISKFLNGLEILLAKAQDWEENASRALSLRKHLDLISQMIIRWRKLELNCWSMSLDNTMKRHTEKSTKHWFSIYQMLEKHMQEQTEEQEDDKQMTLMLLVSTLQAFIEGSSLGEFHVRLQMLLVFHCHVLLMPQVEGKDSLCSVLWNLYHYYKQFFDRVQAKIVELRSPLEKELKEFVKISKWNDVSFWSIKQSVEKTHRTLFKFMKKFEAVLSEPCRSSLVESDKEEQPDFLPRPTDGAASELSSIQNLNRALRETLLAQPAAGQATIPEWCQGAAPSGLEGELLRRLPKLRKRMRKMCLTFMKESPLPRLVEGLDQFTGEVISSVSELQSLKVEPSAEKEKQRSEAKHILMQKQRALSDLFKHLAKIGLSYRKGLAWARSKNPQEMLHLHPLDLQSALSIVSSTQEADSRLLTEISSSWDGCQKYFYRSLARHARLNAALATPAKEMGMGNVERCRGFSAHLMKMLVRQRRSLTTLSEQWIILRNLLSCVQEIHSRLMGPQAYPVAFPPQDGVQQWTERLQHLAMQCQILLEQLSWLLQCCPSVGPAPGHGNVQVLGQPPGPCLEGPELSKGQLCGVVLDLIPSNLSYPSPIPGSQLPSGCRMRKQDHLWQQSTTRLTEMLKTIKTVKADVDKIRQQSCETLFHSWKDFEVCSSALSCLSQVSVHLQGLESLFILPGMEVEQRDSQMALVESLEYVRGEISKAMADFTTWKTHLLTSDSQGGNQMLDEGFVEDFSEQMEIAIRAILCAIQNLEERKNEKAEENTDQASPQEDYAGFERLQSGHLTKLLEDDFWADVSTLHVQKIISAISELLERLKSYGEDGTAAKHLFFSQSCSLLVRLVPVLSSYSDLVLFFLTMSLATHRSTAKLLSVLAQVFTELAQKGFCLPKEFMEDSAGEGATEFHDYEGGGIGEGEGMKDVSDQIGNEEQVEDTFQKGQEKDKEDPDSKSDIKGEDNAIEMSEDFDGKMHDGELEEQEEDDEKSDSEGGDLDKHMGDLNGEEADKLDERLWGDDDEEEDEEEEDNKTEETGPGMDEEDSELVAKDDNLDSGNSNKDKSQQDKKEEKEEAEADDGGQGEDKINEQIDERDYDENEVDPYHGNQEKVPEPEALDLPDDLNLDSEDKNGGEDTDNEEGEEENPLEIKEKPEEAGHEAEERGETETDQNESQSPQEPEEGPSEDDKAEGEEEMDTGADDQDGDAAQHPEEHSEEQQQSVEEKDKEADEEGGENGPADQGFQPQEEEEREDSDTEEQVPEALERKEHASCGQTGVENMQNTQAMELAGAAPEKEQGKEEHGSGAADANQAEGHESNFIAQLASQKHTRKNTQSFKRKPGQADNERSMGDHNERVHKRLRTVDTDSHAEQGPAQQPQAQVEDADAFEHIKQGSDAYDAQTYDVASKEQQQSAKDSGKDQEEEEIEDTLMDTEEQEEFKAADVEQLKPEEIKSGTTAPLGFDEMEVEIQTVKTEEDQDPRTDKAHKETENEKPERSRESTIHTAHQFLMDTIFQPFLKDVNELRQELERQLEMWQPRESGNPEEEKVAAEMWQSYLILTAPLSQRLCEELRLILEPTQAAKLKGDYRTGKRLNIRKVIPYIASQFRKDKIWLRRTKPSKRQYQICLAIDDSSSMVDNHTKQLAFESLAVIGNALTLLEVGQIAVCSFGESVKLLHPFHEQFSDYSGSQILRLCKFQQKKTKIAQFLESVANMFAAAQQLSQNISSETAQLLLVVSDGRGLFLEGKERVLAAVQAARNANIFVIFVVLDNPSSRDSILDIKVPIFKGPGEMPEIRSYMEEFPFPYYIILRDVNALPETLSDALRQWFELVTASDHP
UniProt Q8IWA4: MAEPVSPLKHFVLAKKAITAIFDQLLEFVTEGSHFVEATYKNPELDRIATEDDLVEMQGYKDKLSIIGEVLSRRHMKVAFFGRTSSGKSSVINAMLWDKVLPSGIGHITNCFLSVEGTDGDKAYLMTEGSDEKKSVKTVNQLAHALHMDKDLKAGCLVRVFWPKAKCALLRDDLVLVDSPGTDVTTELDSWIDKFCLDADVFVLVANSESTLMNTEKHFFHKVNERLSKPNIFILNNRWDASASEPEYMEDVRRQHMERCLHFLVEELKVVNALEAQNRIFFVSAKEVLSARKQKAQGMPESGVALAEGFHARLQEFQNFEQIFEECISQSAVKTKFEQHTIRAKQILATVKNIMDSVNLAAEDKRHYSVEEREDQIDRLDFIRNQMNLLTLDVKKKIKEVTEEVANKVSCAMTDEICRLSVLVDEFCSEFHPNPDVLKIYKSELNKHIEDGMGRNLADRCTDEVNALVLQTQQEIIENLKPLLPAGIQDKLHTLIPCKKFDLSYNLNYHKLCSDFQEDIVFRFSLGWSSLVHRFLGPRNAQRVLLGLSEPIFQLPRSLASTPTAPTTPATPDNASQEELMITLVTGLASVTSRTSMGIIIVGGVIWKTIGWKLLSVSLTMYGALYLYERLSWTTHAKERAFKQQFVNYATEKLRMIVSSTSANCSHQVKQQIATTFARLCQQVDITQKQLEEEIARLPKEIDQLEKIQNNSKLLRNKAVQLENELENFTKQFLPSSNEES

The list shows a part of the results.

Compound in one test: CC1=C(C(CC(=O)N1)C2=CC=C(C=C2)C(F)(F)F)C(=O)NC3=C(C=C4C(=C3)C=NN4)F
The test is described as follows: log2 fold change, soluble protein after heating vs DMSO (PISA); higher = thermal stabilisation; K562 cells, 10 uM, 30 min; active = over 0.2 and 3.5 SD of the protein, either way, in both replicates (recomputed). An outline of the steps:
(§1)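 For each measurement, 10 μM compound was applied for 30 min to K562 cells at 2×10^6 cells/mL. Aliquots were heated for 3 min across 48°C-58°C, pooled, and extracted in PBS with 0.5% NP-40 at 4°C; the supernatant after 21,000xg for 90 min was soluble protein. This was quantified by TMTpro 16plex LC-MS/MS with channel sums equalised, and thermal stability was reported relative to control samples from duplicates, on a log2 fold-change scale.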
As to MGAT4B isoform 3 (UniProt Q9UQ53), the log2 fold change is inactive: -0.088.

As for MBNL1 (UniProt Q9NR56), the log2 fold change was inactive: 0.05. MEF2D (UniProt Q14814): the log2 fold change was inactive: -0.003. With MFSD10 (UniProt Q14728), the log2 fold change is inactive: -0.091. For the target MCAM (UniProt P43121), the log2 fold change is inactive: -0.016. METTL1 (UniProt Q9UBP6): the log2 fold change was inactive: -0.029.

Take MECP2 isoform 2 (UniProt P51608): the log2 fold change was inactive: 0.008. Consider MCM2 (UniProt P49736), for which the log2 fold change is inactive: 0.002. In the case of MCM3 isoform 2 (UniProt P25205), the log2 fold change was inactive: 0.019. Consider METTL21A (UniProt Q8WXB1), for which the log2 fold change is inactive: 0.007. Consider MGAT1 (UniProt P26572), for which the log2 fold change was inactive: -0.071. The same measure, in the same setting: the figure for MED20 (UniProt Q9H944) is inactive: -0.009. In the case of METTL14 (UniProt Q9HCE5), the log2 fold change is inactive: -0.088. As to MCRIP1 (UniProt I3L4Q0), the log2 fold change was inactive: 0.015. For the target MCM5 (UniProt P33992), the log2 fold change is inactive: 0.008. Consider MCUB (UniProt Q9NWR8), for which the log2 fold change is inactive: -0.04. Same read-out and setting: the figure for MBOAT1 (UniProt Q6ZNC8) is inactive: -0.047; for MCMBP (UniProt Q9BTE3) it is inactive: -0.048; for MATR3 (UniProt P43243) it is inactive: 0.044.

MED18 (UniProt Q9BUE0): the log2 fold change was inactive: 0.065. The same measure, in the same setting: under MAT2A (UniProt P31153) stands inactive: -0.002; under MAVS (UniProt Q7Z434), inactive: -0.031; under MEMO1 (UniProt Q9Y316), inactive: 0.037. As for MED15 (UniProt Q96RN5), the log2 fold change was inactive: 0.047.

Turning to MCFD2 (UniProt Q8NI22), the log2 fold change is inactive: 0.061. The same measure, in the same setting: under MARS2 (UniProt Q96GW9) stands inactive: 0.069; under MED14 (UniProt O60244), inactive: 0.003.

With MCTS1 isoform 3 (UniProt Q9ULC4), the log2 fold change was inactive: 0.038. On to MCM6 (UniProt Q14566), for which the log2 fold change was inactive: 0.002.

Compound in the next test: CC1=C(C2=C(C=C1)C(=O)C3=CC=CC=C3N2CCCN)C
The description is as above. The method in brief:
as §1
With MGAT4B isoform 3 (UniProt Q9UQ53), the log2 fold change was inactive: 0.094. As to MBNL1 (UniProt Q9NR56), the log2 fold change is inactive: 0.029.

Consider MEF2D (UniProt Q14814), for which the log2 fold change was inactive: 0.027.

As for MFSD10 (UniProt Q14728), the log2 fold change is inactive: 0.067.

With MCAM (UniProt P43121), the log2 fold change was inactive: 0.014. Turning to METTL1 (UniProt Q9UBP6), the log2 fold change was inactive: -0.066. For the target MECP2 isoform 2 (UniProt P51608), the log2 fold change was inactive: -0.416. On the same count and under the same terms, the figure for MCM2 (UniProt P49736) is inactive: -0.047; for MCM3 isoform 2 (UniProt P25205) it is inactive: 0.029; for METTL21A (UniProt Q8WXB1) it is inactive: 0.081. Take MDN1 (UniProt Q9NU22): the log2 fold change was inactive: 0.005.

As for MGAT1 (UniProt P26572), the log2 fold change was inactive: -0.016. Consider METAP1D (UniProt Q6UB28), for which the log2 fold change was inactive: -0.024. As for MED20 (UniProt Q9H944), the log2 fold change is inactive: 0.033. METTL14 (UniProt Q9HCE5): the log2 fold change is inactive: 0.048. On the same count and under the same terms, under MEAK7 (UniProt Q6P9B6) stands inactive: 0.033; under MCRIP1 (UniProt I3L4Q0), inactive: 0.037; under MCM5 (UniProt P33992), inactive: 0.011. For MCUB (UniProt Q9NWR8), the log2 fold change is inactive: 0.006. Same read-out and setting: under MED22 (UniProt Q15528) stands inactive: 0.096. On to ME2 (UniProt P23368), for which the log2 fold change is inactive: -0.042.

MBOAT1 (UniProt Q6ZNC8): the log2 fold change is inactive: 0.018. MDC1 (UniProt Q14676): the log2 fold change was inactive: 0.11. For the target MCMBP (UniProt Q9BTE3), the log2 fold change was inactive: 0.181.

For MATR3 (UniProt P43243), the log2 fold change is inactive: 0.012.

Consider MFN1 (UniProt Q8IWA4), for which the log2 fold change is inactive: 0.098. On to MAST4 (UniProt O15021), for which the log2 fold change was inactive: 0.268. As for MED18 (UniProt Q9BUE0), the log2 fold change was inactive: 0.001. MAT2A (UniProt P31153): the log2 fold change was inactive: -0.027. Take MAVS (UniProt Q7Z434): the log2 fold change is inactive: 0.022. For the target MEMO1 (UniProt Q9Y316), the log2 fold change was inactive: 0.023.

In the case of MGST3 (UniProt O14880), the log2 fold change was inactive: -0.014.

Regarding MED15 (UniProt Q96RN5), the log2 fold change is inactive: 0.002. As to MCFD2 (UniProt Q8NI22), the log2 fold change is inactive: 0.323.

Take MARS2 (UniProt Q96GW9): the log2 fold change is inactive: 0.017.
